From patent US20130158084A1, “Pharmaceutical Composition Comprising Losartin For Treating or Preventing Statin BasedGrug-Induced Muscle Toxicity” (HANALL BIOPHARMA CO., LTD., priority 2011, published 2013)
Read-outs that look alike come from different tables or passages of the source.

Legend:
Wistar rats [1] = details: for CK Enzyme Concentration in the Blood: oral once a day
Wistar rats [2] = details: for LDH Enzyme Concentration in the Blood: oral once a day
[3] = 40 mg/kg atorvastatin alone, 1 week
[4] = 40 mg/kg atorvastatin alone, 2 weeks
[5] = 40 mg/kg atorvastatin alone, 3 weeks
[6] = 80 mg/kg atorvastatin alone, 1 week
[7] = 80 mg/kg atorvastatin alone, 2 weeks
[8] = 80 mg/kg atorvastatin alone, 3 weeks

Change Rate of CK Enzyme Concentration in the Blood As Compared With the Control Group (Wistar rats [1]; [3]): 11.5%
Change Rate of CK Enzyme Concentration in the Blood As Compared With the Control Group (Wistar rats [1]; [4]): 47.5%
Change Rate of CK Enzyme Concentration in the Blood As Compared With the Control Group (Wistar rats [1]; [5]): 110.5%
CK Enzyme Concentration in the Blood (Wistar rats [1]; [3]): 600.8 ± 67.2 IU/L
CK Enzyme Concentration in the Blood (Wistar rats [1]; [4]): 958.8 ± 54.4 IU/L
CK Enzyme Concentration in the Blood (Wistar rats [1]; [5]): 1407.9 ± 117.5 IU/L
Change Rate of CK Enzyme Concentration in the Blood As Compared With the Control Group (Wistar rats [1]; [6]): 17.4%
Change Rate of CK Enzyme Concentration in the Blood As Compared With the Control Group (Wistar rats [1]; [7]): 85.0%
Change Rate of CK Enzyme Concentration in the Blood As Compared With the Control Group (Wistar rats [1]; [8]): 149.4%
CK Enzyme Concentration in the Blood (Wistar rats [1]; [6]): 632.2 ± 83.2 IU/L
CK Enzyme Concentration in the Blood (Wistar rats [1]; [7]): 1202.8 ± 138.4 IU/L
CK Enzyme Concentration in the Blood (Wistar rats [1]; [8]): 1664.6 ± 149.9 IU/L
Change Rate of LDH Enzyme Concentration in the Blood As Compared With the Control Group (Wistar rats [2]; [3]): 9.3%
Change Rate of LDH Enzyme Concentration in the Blood As Compared With the Control Group (Wistar rats [2]; [4]): 74.0%
Change Rate of LDH Enzyme Concentration in the Blood As Compared With the Control Group (Wistar rats [2]; [5]): 199.9%
LDH Enzyme Concentration in the Blood (Wistar rats [2]; [3]): 598.4 ± 48.9 IU/L
LDH Enzyme Concentration in the Blood (Wistar rats [2]; [4]): 1259.6 ±125.9 IU/L
LDH Enzyme Concentration in the Blood (Wistar rats [2]; [5]): 2268.2 ± 226.8 IU/L
Change Rate of LDH Enzyme Concentration in the Blood As Compared With the Control Group (Wistar rats [2]; [6]): 50.7%
Change Rate of LDH Enzyme Concentration in the Blood As Compared With the Control Group (Wistar rats [2]; [7]): 95.0%
Change Rate of LDH Enzyme Concentration in the Blood As Compared With the Control Group (Wistar rats [2]; [8]): 238.7%
LDH Enzyme Concentration in the Blood (Wistar rats [2]; [6]): 824.9 ± 109.4 IU/L
LDH Enzyme Concentration in the Blood (Wistar rats [2]; [7]): 1411.6 ± 161.3 IU/L
Structure (SMILES): CC(C)c1c(C(=O)Nc2ccccc2)c(-c2ccccc2)c(-c2ccc(F)cc2)n1CC[C@@H](O)C[C@@H](O)CC(=O)O [Atorvastatin, atorvastatin]
